Experimental data published in PMC5562708.
No constants are given. Whether binding was seen depends on the method and setting. Binding seen in cells or lysates may run through a third protein. Some results given as binding are weak or reduced against the parent protein; the word gives no strength. Sequences can lack the tags named with a protein.

Amino acid sequences for entries named in this document (tags omitted). Residues count along the entry.
UniProt Q13873, residues 27-1038: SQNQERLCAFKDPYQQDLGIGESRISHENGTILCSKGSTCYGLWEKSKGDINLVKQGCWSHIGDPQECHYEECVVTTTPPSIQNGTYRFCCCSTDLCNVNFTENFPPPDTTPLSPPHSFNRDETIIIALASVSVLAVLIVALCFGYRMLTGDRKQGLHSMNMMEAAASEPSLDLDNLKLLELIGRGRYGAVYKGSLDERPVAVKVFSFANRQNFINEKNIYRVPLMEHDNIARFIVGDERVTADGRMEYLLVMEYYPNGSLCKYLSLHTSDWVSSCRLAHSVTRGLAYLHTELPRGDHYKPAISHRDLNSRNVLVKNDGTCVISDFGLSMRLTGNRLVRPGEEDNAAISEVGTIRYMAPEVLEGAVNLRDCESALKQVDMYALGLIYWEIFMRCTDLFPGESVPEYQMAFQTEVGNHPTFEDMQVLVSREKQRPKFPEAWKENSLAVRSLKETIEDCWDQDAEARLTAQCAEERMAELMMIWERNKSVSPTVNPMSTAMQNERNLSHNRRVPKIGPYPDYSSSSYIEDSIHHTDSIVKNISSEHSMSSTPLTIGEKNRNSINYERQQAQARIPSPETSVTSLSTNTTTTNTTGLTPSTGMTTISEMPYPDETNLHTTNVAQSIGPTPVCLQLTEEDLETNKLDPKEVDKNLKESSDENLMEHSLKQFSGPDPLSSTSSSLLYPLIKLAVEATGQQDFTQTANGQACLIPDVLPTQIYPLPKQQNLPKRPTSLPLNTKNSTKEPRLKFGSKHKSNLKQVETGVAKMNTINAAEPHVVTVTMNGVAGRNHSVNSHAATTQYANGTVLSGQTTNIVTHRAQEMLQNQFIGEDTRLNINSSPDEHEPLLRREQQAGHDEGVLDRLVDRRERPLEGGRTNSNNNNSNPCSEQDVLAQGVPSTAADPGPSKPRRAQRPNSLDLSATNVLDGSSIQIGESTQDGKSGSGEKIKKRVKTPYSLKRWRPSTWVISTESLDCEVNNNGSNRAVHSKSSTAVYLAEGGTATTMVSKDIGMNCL

Columns and labels:
Assay in all cases: co-IP; transfected HEK293T cells, lysed directly or starved 6 h and stimulated with 10 nM BMP2; RIPA or TNE buffer; IP with anti-myc (9E10) or anti-IRS4 antibody overnight, protein A sepharose; Western blot
[1] = target: T1, IRS4 truncation from the C-terminus to amino acid residue 604 (myc-tagged) (mouse) (UniProt Q9Z0Y7)
T1 sequence: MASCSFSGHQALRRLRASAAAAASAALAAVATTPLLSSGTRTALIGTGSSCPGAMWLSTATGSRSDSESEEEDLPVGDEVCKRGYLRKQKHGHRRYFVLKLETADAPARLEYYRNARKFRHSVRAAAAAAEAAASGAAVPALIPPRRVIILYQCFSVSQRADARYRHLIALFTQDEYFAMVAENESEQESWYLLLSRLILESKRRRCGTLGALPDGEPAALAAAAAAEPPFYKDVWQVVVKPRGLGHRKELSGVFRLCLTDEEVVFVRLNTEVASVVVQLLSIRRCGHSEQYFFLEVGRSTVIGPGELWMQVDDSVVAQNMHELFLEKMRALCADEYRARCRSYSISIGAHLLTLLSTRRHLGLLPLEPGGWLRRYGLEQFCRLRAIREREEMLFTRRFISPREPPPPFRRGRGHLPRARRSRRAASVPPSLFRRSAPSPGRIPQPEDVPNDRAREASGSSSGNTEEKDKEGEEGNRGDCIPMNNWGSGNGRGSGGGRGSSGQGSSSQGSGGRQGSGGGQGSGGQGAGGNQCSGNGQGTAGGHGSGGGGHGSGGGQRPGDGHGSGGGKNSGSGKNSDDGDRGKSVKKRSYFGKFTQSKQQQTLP

[2] = target: T2, IRS4 A1174 truncation (myc-tagged) (mouse) (UniProt Q9Z0Y7)
T2 sequence: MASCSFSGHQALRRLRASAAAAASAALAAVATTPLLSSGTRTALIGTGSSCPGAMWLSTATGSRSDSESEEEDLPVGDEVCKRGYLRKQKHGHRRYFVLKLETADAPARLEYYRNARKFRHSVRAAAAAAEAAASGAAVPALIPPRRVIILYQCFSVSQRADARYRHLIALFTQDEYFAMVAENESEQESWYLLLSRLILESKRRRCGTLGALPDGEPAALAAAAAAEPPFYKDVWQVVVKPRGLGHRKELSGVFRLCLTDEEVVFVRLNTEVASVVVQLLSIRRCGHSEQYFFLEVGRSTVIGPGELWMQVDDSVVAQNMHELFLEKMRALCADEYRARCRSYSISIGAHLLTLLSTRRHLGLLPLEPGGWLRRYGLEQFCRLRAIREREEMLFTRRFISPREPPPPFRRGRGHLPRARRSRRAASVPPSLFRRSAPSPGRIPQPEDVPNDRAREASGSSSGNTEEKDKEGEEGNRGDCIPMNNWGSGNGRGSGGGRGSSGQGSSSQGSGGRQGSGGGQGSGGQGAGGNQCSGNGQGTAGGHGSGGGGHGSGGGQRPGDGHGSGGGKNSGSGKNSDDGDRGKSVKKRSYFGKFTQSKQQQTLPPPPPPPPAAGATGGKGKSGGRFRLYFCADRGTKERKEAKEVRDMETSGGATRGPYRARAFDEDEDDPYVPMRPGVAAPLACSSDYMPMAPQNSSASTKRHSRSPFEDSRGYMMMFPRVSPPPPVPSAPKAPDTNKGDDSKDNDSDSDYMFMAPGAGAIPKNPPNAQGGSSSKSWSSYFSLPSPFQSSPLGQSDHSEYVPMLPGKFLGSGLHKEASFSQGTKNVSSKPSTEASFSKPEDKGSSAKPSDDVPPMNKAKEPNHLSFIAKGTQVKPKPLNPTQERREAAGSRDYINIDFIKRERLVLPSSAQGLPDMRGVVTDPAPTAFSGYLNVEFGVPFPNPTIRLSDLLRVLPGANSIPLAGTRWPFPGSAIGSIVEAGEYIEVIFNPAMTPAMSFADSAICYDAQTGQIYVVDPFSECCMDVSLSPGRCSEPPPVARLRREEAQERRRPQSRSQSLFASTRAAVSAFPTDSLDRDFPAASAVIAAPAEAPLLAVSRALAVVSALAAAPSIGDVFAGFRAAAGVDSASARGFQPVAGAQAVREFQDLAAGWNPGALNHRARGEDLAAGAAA

[3] = target: T3, IRS4 V906 truncation (myc-tagged) (mouse) (UniProt Q9Z0Y7)
T3 sequence: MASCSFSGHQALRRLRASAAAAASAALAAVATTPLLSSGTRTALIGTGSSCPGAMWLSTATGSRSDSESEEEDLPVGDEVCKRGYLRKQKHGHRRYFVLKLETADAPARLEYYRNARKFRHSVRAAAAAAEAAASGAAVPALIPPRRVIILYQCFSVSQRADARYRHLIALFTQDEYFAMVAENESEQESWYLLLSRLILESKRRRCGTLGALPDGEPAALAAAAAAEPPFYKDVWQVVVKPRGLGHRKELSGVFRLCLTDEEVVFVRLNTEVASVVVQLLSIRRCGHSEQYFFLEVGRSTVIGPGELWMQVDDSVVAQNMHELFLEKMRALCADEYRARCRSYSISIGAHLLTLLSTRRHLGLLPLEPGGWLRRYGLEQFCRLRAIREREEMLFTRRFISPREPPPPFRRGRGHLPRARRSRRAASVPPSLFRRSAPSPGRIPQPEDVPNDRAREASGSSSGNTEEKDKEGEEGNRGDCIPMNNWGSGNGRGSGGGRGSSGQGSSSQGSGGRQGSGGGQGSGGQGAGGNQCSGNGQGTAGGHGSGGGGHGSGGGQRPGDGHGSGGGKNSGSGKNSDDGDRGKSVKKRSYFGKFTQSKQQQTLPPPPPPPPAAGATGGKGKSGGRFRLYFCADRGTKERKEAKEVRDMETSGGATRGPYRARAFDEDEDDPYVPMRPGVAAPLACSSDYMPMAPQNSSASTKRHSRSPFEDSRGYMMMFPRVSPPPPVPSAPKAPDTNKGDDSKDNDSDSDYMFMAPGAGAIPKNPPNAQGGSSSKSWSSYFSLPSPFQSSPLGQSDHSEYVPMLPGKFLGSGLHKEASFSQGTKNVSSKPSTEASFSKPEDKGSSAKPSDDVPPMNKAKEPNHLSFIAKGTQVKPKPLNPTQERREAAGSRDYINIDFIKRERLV

Measured: binding

HA-tagged BMPRII long form (HA-BMPRII-LF) (from UniProt Q13873 27-1038) (receptor)
binds: [1] | [2] | [3]
